Results on one molecule are retold here after PMC9556925.

The chains behind the UniProt entries cited, without tags or fusion partners.
UniProt P35568: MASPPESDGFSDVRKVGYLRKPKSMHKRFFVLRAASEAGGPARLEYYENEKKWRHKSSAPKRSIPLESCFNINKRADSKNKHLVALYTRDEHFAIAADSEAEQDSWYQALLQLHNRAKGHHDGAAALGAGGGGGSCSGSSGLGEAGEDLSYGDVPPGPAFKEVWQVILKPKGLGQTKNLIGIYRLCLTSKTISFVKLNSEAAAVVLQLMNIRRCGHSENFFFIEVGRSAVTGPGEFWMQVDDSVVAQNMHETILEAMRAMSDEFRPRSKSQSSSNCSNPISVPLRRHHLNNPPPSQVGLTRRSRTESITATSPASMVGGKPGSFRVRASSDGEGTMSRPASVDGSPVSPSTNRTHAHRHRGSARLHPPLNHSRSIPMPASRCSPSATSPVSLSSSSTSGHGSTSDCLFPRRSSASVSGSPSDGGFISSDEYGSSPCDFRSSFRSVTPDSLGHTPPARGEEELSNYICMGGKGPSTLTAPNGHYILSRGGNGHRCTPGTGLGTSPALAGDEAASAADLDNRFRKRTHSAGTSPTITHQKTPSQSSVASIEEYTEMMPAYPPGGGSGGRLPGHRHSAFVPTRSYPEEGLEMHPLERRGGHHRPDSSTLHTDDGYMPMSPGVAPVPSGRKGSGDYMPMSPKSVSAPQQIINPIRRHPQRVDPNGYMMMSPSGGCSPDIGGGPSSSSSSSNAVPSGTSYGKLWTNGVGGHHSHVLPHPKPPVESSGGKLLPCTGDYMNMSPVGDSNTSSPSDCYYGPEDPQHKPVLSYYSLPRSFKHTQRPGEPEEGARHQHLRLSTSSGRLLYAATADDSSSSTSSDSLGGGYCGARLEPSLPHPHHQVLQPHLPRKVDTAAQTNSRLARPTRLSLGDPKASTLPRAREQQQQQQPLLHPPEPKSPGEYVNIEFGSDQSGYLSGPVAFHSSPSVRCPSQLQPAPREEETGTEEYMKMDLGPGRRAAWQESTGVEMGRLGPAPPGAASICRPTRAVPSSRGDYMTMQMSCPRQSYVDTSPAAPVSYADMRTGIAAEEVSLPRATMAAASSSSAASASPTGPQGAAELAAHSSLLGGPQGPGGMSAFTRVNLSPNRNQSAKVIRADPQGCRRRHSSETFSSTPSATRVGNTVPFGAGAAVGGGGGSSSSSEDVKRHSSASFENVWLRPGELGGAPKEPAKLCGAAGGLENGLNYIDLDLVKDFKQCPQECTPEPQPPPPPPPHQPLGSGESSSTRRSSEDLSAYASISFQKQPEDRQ

The target of this experiment is IRS1-BirA*-Flag (human) (UniProt P35568). Kind of experiment: proximity labelling; BioID: IRS1-BirA*-Flag stably expressed in Flp-In 293 T-REx cells, 24 h with 1 ug/mL tetracycline and 50 uM biotin; streptavidin pull-down, mass spectrometry; SAINT against FlagBirA* alone, BFDR <=0.01.

These are yes or no findings as the source states them, for the method shown. In cells and extracts the contact can be indirect. These calls come from enrichment with a bait or labelling near it, and not all partners need be listed.

B1: DDB1- and CUL4-associated factor 7 (DCAF7) (protein, UniProt P61962 1-342)
chain: MSLHGKRKEIYKYEAPWTVYAMNWSVRPDKRFRLALGSFVEEYNNKVQLVGLDEESSEFICRNTFDHPYPTTKLMWIPDTKGVYPDLLATSGDYLRVWRVGETETRLECLLNNNKNSDFCAPLTSFDWNEVDPYLLGTSSIDTTCTIWGLETGQVLGRVNLVSGHVKTQLIAHDKEVYDIAFSRAGGGRDMFASVGADGSVRMFDLRHLEHSTIIYEDPQHHPLLRLCWNKQDPNYLATMAMDGMEVVILDVRVPCTPVARLNNHRACVNGIAWAPHSSCHICTAADDHQALIWDIQQMPRAIEDPILAYTAEGEINNVQWASTQPDWIAICYNNCLEILRV
For the molecule B1, the binding result is “binds”.
